Results are given in words; binding and its absence hold for the method and conditions named. Some entries that bind do so weakly or less than the wild type.
T1: FGF7 (UniProt P21781 32-194)
T1 construct: Bought reagent; also called KGF
T1 sequence (looked up): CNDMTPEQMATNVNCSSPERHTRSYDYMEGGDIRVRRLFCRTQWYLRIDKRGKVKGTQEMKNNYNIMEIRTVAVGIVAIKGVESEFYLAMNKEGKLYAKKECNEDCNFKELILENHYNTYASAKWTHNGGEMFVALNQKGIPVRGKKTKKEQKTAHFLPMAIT

B1: truncated protein of the wild-type FGFR2b extracellular fragment (SEQ ID NO: 8) (receptor)
chain: KRAPYWTNTEKMEKRLHAVPAANTVKFRCPAGGNPMPTMRWLKNGKEFKQEHRIGGYKVRNQHWSLIMESVVPSDKGNYTCVVENEYGSINHTYHLDVVERSPHRPILQAGLPANASTVVGGDVEFVCKVYSDAQPHIQWIKHVEKNGSKYGPDGLPYLKVLKHSGINSSNAEVLALFNVTEADAGEYICKVSNYIGQANQSAWLTVLPKQQAPGR
notes: also called truncated FGFR2b extracellular fragment, wild type
B2: truncated protein of P253R mutant-type FGFR2b extracellular fragment (SEQ ID NO: 12) (receptor)
chain: KRAPYWTNTEKMEKRLHAVPAANTVKFRCPAGGNPMPTMRWLKNGKEFKQEHRIGGYKVRNQHWSLIMESVVPSDKGNYTCVVENEYGSINHTYHLDVVERSRHRPILQAGLPANASTVVGGDVEFVCKVYSDAQPHIQWIKHVEKNGSKYGPDGLPYLKVLKHSGINSSNAEVLALFNVTEADAGEYICKVSNYIGQANQSAWLTVLPKQQAPGR
notes: also called truncated FGFR2b extracellular fragment, P253R mutant type
B3: truncated protein of S252W mutant-type FGFR2b extracellular fragment (SEQ ID NO: 10) (receptor)
chain: KRAPYWTNTEKMEKRLHAVPAANTVKFRCPAGGNPMPTMRWLKNGKEFKQEHRIGGYKVRNQHWSLIMESVVPSDKGNYTCVVENEYGSINHTYHLDVVERWPHRPILQAGLPANASTVVGGDVEFVCKVYSDAQPHIQWIKHVEKNGSKYGPDGLPYLKVLKHSGINSSNAEVLALFNVTEADAGEYICKVSNYIGQANQSAWLTVLPKQQAPGR
notes: also called truncated FGFR2b extracellular fragment, S252W mutant type

target: T1, FGF7; assay: isothermal titration calorimetry, FGF7 titrated into the fragment

binding, binds:
B1, B2, B3
